Test [1] concerns the target T1, Flag-USP1 (UniProt O94782).
T1 sequence: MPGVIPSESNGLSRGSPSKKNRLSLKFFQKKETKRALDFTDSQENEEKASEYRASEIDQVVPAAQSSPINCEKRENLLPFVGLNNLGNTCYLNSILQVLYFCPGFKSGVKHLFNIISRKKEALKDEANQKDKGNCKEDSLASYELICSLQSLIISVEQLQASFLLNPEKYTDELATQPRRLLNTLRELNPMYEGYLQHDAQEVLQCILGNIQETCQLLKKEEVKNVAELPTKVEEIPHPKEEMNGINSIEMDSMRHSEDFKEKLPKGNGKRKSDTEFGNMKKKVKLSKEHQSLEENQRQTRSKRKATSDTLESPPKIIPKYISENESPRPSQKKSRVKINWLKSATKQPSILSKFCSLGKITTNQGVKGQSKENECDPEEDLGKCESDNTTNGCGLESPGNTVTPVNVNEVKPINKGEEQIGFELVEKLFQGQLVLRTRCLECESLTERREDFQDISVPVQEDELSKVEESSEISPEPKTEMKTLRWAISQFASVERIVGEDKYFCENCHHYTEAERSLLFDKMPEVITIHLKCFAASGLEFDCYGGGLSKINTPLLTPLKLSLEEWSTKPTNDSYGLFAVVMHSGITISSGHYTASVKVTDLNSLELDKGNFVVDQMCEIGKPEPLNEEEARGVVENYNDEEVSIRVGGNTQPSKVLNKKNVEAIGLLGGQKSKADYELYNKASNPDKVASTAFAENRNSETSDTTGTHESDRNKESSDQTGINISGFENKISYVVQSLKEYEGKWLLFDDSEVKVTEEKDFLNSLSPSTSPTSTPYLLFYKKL
The experiment in a line: co-IP; Flag-USP1 with WT or truncated TAZ in transfected cells; Co-IP with USP1 (anti-Flag antibody), immunoblot.

Protein sequences, listed by entry. Tags and fused reporters are not part of them.
UniProt Q9GZV5: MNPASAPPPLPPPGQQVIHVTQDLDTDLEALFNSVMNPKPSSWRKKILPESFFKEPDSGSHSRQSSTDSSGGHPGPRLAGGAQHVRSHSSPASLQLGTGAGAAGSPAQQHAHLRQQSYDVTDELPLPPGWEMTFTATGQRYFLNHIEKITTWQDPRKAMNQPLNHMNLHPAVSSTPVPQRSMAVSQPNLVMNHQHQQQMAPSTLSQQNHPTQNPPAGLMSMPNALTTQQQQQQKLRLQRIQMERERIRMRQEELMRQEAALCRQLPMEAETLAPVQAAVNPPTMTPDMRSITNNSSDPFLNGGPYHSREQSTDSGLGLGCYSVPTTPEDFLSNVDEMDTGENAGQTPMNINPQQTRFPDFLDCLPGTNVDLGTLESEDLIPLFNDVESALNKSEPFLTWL

Test [2] addresses T2, USP1 (ubiquitin carboxyl-terminal hydrolase 1) (human (endogenous in HLF)) (UniProt O94782).
T2 sequence: T1 sequence
The test can be described thus: co-IP; endogenous proteins in HLF cell lysate; 500 µg lysate precleared with Protein A + G agarose and rabbit IgG, immunoprecipitation with the indicated antibody 4 h at 4 °C; IgG as negative control.

These are yes or no findings as the source states them, for the method shown. In cells and extracts the contact can be indirect. Some entries that bind do so weakly or less than the wild type. For some assays here: Sequences can lack the tags named with a protein.

With Myc-TAZ (from UniProt Q9GZV5 1-400), the binding entry in test [1] is reported as “binds”. Take “WW domain-containing transcription regulator protein 1 (WWTR1; TAZ) (from UniProt Q9GZV5 1-400)”: the binding entry in test [2] is given as “binds”.

These data come from PMC10090121.
